Measurements reported in PubChem BioAssay AID504808 (Drosophila RNAi Screening Center, 2011)

Assay: 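Chromatin factors that keep E2F targets switched off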 (primary screen)
Cell system: Drosophila S2 cells
Reagent: long dsRNA against Drosophila genes
Measured: 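Firefly luciferase driven by E2F sites, normalised to Renilla luciferase on the same minimal promoter, measured by plate reader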
Direction: E2F firefly: higher = more E2F reporter activity; Renilla normaliser: higher = more normaliser reporter signal
Call rule: 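Called active if the normalised E2F reporter went up by over 50%; the cutoff is arbitrary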
The screen tested about 21,000 reagents; shown is an unselected part of those that have a named target and a result. In the full data, 18 (0.084%) are marked active. 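Raw counts without plate normalisation, one of two replicates; the ratio scores behind the calls were not deposited.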 Reagents against one gene are numbered here. Names joined by + are all predicted targets of the reagent. Not stated in the record: the amount of reagent, the time to read-out.

no.	predicted target	reagent	E2F firefly, rep 1	Renilla normaliser, rep 1	Call
1	Whamy	1	1.41e5	6912	inactive
2	CG8839	1	152	50	inactive
3	CG34150	1	80375	2372	inactive
4	yrt	1	81463	3969	inactive
5	AIMP2	1	73319	3736	inactive
6	CG15870	1	1.07e5	4462	inactive
7	vig2	1	74189	3372	inactive
8	Sps1	1	2881	215	inactive
9	CG34436	1	1.29e5	7585	inactive
10	CG32547	1	75913	2865	inactive
11	CG32547	2	83996	3113	inactive
12	CG32547	3	1.58e5	6205	inactive
13	CG32547	4	1.61e5	5699	inactive
14	CG4049	1	1.22e5	4948	inactive
15	VGlut	1	1.64e5	5576	inactive
16	CG11523	1	71372	3582	inactive
17	Orct2	1	72675	3593	inactive
18	spo	1	87653	4208	inactive
19	Gr58a	1	1.25e5	4645	inactive
20	dpr17	1	76108	3219	inactive
21	dpr17	2	1.27e5	5215	inactive
22	dpr17	3	1.48e5	6880	inactive
23	Tsp42A	1	1.24e5	4593	inactive
24	CG2444	1	83597	5946	inactive
25	CG33937 (retired record)	1	1.36e5	6348	inactive
26	nur	1	1.35e5	5651	inactive
27	XRCC1	1	8422	736	inactive
28	zyd	1	1.27e5	6948	inactive
29	Cyp4ac3	1	94460	3717	inactive
30	CG31407	1	80111	3737	inactive
31	gol	1	71095	3492	inactive

Laid out differently: 8 of the entries above
predicted target,reagent,"E2F firefly, rep 1","Renilla normaliser, rep 1",Call
CG34436,1,1.29e5,7585,inactive
CG32547,1,75913,2865,inactive
CG32547,2,83996,3113,inactive
CG32547,3,1.58e5,6205,inactive
CG32547,4,1.61e5,5699,inactive
CG4049,1,1.22e5,4948,inactive
VGlut,1,1.64e5,5576,inactive
CG11523,1,71372,3582,inactive

The results go on:
no.	predicted target	reagent	E2F firefly, rep 1	Renilla normaliser, rep 1	Call
32	PEK	1	71014	3502	inactive
33	Prosalpha1R + Prosalpha1	1	2179	231	inactive
34	CG3699	1	1.10e5	5162	inactive
35	CG3699	2	1.22e5	5508	inactive
36	Pfdn5	1	62309	2857	inactive
37	Prosalpha3	1	88085	4791	inactive
38	by	1	1.54e5	6635	inactive
39	sug	1	3075	190	inactive
40	Cpr50Ca	1	1.23e5	4981	inactive
41	Cpr50Ca	2	89781	3596	inactive
42	Cpr50Ca	3	1.03e5	4685	inactive
43	CG13930	1	82726	3894	inactive
44	CG32643	1	95164	2800	inactive
45	dpr5	1	1.43e5	6424	inactive
46	CG7369	1	66462	3203	inactive
47	HDAC11	1	1.06e5	6320	inactive
48	CG6066	1	1.24e5	6345	inactive
49	mRpS26	1	1.60e5	6159	inactive
50	CG42750	1	91474	3897	inactive
51	CG42750	2	89882	4037	inactive
52	CG42750	3	1.04e5	4013	inactive
53	PolI	1	1.34e5	5836	inactive
54	CG12065	1	8020	844	inactive
55	CG12065	2	1.04e5	5418	inactive
56	CG7110	1	78597	3185	inactive
57	CG7110	2	96994	4313	inactive
